Some of these results come from one statement about several compounds together.
Tested on: Alternaria solani
Assay: Microtiterplate test against early blight caused by Alternaria solani
Format: cell-based
Conditions: 31 ppm active substance; absorption 405 nm 9 days after inoculation; relative to active compound-free control (100%)

CCOC(C)c1c(F)cccc1Oc1cnc(C)c(C)c1 (stereo not shown) [Example I-16]
growth of the pathogen: at most 17%
